# Measurements reported in US20230382910A1, “HETEROARYL COMPOUNDS FOR THE TREATMENT OF PAIN” (VERTEX PHARMACEUTICALS INCORPORATED, priority 2022, published 2023).
# The chains behind the UniProt entries cited, without tags or fusion partners. Residues count along the entry.
# UniProt Q9Y5Y9, 660-890 limits assumed: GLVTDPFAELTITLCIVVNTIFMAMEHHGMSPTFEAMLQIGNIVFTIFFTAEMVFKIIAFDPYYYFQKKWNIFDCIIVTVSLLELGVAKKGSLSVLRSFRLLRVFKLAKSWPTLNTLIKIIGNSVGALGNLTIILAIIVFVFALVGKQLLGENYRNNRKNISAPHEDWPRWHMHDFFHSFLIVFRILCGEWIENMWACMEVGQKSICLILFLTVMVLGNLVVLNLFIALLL
# UniProt Q9Y5Y9, 1148-1722 limits assumed: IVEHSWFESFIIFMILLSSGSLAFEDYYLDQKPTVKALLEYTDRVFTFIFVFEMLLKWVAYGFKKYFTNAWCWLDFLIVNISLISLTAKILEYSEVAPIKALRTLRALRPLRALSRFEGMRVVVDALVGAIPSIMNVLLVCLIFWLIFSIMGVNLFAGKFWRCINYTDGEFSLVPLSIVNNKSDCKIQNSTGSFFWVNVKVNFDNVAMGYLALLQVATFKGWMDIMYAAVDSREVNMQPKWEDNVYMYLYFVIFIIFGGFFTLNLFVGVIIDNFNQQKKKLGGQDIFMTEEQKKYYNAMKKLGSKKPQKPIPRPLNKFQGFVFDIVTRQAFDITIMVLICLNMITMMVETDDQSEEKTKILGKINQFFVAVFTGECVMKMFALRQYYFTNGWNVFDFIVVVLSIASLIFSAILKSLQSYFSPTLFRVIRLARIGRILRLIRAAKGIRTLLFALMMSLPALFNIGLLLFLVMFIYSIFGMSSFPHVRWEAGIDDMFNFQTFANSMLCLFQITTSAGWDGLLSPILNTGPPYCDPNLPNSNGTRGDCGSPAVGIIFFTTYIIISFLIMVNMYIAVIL
# UniProt Q9Y5Y9, 126-399 limits assumed: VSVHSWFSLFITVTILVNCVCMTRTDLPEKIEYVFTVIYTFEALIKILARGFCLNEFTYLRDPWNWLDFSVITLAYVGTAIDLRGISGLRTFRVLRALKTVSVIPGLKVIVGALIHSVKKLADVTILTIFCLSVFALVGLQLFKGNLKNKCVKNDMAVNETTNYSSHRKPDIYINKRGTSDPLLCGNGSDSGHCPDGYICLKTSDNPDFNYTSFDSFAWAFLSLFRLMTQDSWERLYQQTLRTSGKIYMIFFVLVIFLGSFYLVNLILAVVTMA
# Some of these results come from one statement about several compounds together.
# Target: human NaV 1.8 (Homo sapiens, UniProt Q9Y5Y9)
# Assay: E-VIPR Assay Detecting and Measuring NaV Inhibition Properties
# Format: cell-based
# Conditions: HEK cells expressing a truncated form of human NaV 1.8; electrical stimulation, membrane potential FRET dyes; read-out: measured IC50 value in the E-VIPR Assay
row,SMILES,IC50
1,"NC(=O)c1nccc2[nH]c(-c3cnc4c(C(F)(F)F)cccc4c3)cc(=O)c12 [Compound 235, 4-oxo-2-[8-(trifluoromethyl)-3-quinolyl]-1H-1,6-naphthyridine-5-carboxamide]",≥ 5000 nM
2,"Cc1cc2c(cc1-c1cc(=O)c3c(C(N)=O)nccc3[nH]1)C(C)(C)CCC2(C)C [Compound 236, 4-oxo-2-(1,1,4,4,7-pentamethyltetralin-6-yl)-1H-1,6-naphthyridine-5-carboxamide]",< 500 nM
3,"Cc1cc(C(C)(C)C)c(C(F)(F)F)cc1-c1cc(=O)c2c(C(N)=O)nccc2[nH]1 [Compound 237, 2-[4-tert-butyl-2-methyl-5-(trifluoromethyl)phenyl]-4-oxo-1H-1,6-naphthyridine-5-carboxamide]",< 500 nM
4,"Cc1c(-c2cc(=O)c3c(C(N)=O)nccc3[nH]2)ccc(C(C)(C)C)c1C(F)(F)F [Compound 238, 2-[4-tert-butyl-2-methyl-3-(trifluoromethyl)phenyl]-4-oxo-1H-1,6-naphthyridine-5-carboxamide]",< 500 nM
5,"Cc1cc(C(C)(C)C)cc(F)c1-c1cc(=O)c2c(C(N)=O)nccc2[nH]1 [Compound 240, 2-(4-tert-butyl-2-fluoro-6-methyl-phenyl)-4-oxo-1H-1,6-naphthyridine-5-carboxamide]",< 500 nM
6,"Cc1cc(C(C)(C)C)c(C(C)C)cc1-c1cc(=O)c2c(C(N)=O)nccc2[nH]1 [Compound 241, 2-(4-tert-butyl-5-isopropyl-2-methyl-phenyl)-4-oxo-1H-1,6-naphthyridine-5-carboxamide]",< 500 nM
7,"Cc1cc(C(C)(C)C)c(C2CC2)cc1-c1cc(=O)c2c(C(N)=O)nccc2[nH]1 [Compound 242, 2-(4-tert-butyl-5-cyclopropyl-2-methyl-phenyl)-4-oxo-1H-1,6-naphthyridine-5-carboxamide]",< 500 nM
8,"Cc1cc(C(C)(C)C)c(C)c(F)c1-c1cc(=O)c2c(C(N)=O)nccc2[nH]1 [Compound 243, 2-(4-tert-butyl-2-fluoro-3,6-dimethyl-phenyl)-4-oxo-1H-1,6-naphthyridine-5-carboxamide]",< 500 nM
9,"Cc1cc(C(F)(F)F)c(Cl)cc1-c1cc(=O)c2c(C(N)=O)nccc2[nH]1 [Compound 244, 2-[5-chloro-2-methyl-4-(trifluoromethyl)phenyl]-4-oxo-1H-1,6-naphthyridine-5-carboxamide]",< 500 nM
10,"Cc1nc(C(C)(C)C)c(C(F)(F)F)cc1-c1cc(=O)c2c(C(N)=O)nccc2[nH]1 [Compound 245, 2-[6-tert-butyl-2-methyl-5-(trifluoromethyl)-3-pyridyl]-4-oxo-1H-1,6-naphthyridine-5-carboxamide]",< 500 nM
11,"Cc1cc(C(C)(C)C(F)(F)F)c(C)cc1-c1cc(=O)c2c(C(N)=O)nccc2[nH]1 [Compound 248, 2-[2,5-dimethyl-4-(2,2,2-trifluoro-1,1-dimethyl-ethyl)phenyl]-4-oxo-1H-1,6-naphthyridine-5-carboxamide]",< 500 nM
12,"Cc1cc(C(C)(C)C(=O)O)c(Cl)cc1-c1cc(=O)c2c(C(N)=O)nccc2[nH]1 [Compound 249, 2-[4-(5-carbamoyl-4-oxo-1H-1,6-naphthyridin-2-yl)-2-chloro-5-methyl-phenyl]-2-methyl-propanoic acid]",≥ 5000 nM
13,"Cc1cc(C2CCC2)c(Cl)cc1-c1cc(=O)c2c(C(N)=O)nccc2[nH]1 [Compound 250, 2-(5-chloro-4-cyclobutyl-2-methyl-phenyl)-4-oxo-1H-1,6-naphthyridine-5-carboxamide]",< 500 nM
14,"Cc1cc(C2(C)CC2)c(Cl)cc1-c1cc(=O)c2c(C(N)=O)nccc2[nH]1 [Compound 251, 2-[5-chloro-2-methyl-4-(1-methylcyclopropyl)phenyl]-4-oxo-1H-1,6-naphthyridine-5-carboxamide]",< 500 nM
15,"Cc1cc(C2(C)CCC(F)(F)CC2)c(Cl)cc1-c1cc(=O)c2c(C(N)=O)nccc2[nH]1 [Compound 252, 2-[5-chloro-4-(4,4-difluoro-1-methyl-cyclohexyl)-2-methyl-phenyl]-4-oxo-1H-1,6-naphthyridine-5-carboxamide]",< 500 nM
16,"Cc1cc(C2(C)CCCC2)c(Cl)cc1-c1cc(=O)c2c(C(N)=O)nccc2[nH]1 [Compound 253, 2-[5-chloro-2-methyl-4-(1-methylcyclopentyl)phenyl]-4-oxo-1H-1,6-naphthyridine-5-carboxamide]",< 500 nM
17,"Cc1cc(C2(C)CCC2)c(Cl)cc1-c1cc(=O)c2c(C(N)=O)nccc2[nH]1 [Compound 254, 2-[5-chloro-2-methyl-4-(1-methylcyclobutyl)phenyl]-4-oxo-1H-1,6-naphthyridine-5-carboxamide]",< 500 nM
18,"Cc1cc(C2(C(F)(F)F)CC2)c(Cl)cc1-c1cc(=O)c2c(C(N)=O)nccc2[nH]1 [Compound 255, 2-[5-chloro-2-methyl-4-[1-(trifluoromethyl)cyclopropyl]phenyl]-4-oxo-1H-1,6-naphthyridine-5-carboxamide]",< 500 nM
19,"Cc1cc(C2(C)CCCC2)c(F)cc1-c1cc(=O)c2c(C(N)=O)nccc2[nH]1 [Compound 256, 2-[5-fluoro-2-methyl-4-(1-methylcyclopentyl)phenyl]-4-oxo-1H-1,6-naphthyridine-5-carboxamide]",< 500 nM
20,"Cc1cc(C2(C)CC(F)(F)C2)c(Cl)cc1-c1cc(=O)c2c(C(N)=O)nccc2[nH]1 [Compound 257, 2-[5-chloro-4-(3,3-difluoro-1-methyl-cyclobutyl)-2-methyl-phenyl]-4-oxo-1H-1,6-naphthyridine-5-carboxamide]",< 500 nM
21,"Cc1cc(-c2ccccc2)c(Cl)cc1-c1cc(=O)c2c(C(N)=O)nccc2[nH]1 [Compound 258, 2-(5-chloro-2-methyl-4-phenyl-phenyl)-4-oxo-1H-1,6-naphthyridine-5-carboxamide]",< 500 nM
22,"Cc1cc(C2CCCC2)c(Cl)cc1-c1cc(=O)c2c(C(N)=O)nccc2[nH]1 [Compound 259, 2-(5-chloro-4-cyclopentyl-2-methyl-phenyl)-4-oxo-1H-1,6-naphthyridine-5-carboxamide]",< 500 nM
23,"Cc1cc(C2(C(F)(F)F)CCO2)c(Cl)cc1-c1cc(=O)c2c(C(N)=O)nccc2[nH]1 (stereo not drawn) [Compound 260, 2-[5-chloro-2-methyl-4-[2-(trifluoromethyl)oxetan-2-yl]phenyl]-4-oxo-1H-1,6-naphthyridine-5-carboxamide]",< 500 nM
24,"Cc1cc(C23CC(C2)C3)c(Cl)cc1-c1cc(=O)c2c(C(N)=O)nccc2[nH]1 [Compound 261, 2-[4-(1-bicyclo[1.1.1]pentanyl)-5-chloro-2-methyl-phenyl]-4-oxo-1H-1,6-naphthyridine-5-carboxamide]",< 500 nM
25,"Cc1cc(C2CC3(C2)CC(F)(F)C3)c(Cl)cc1-c1cc(=O)c2c(C(N)=O)nccc2[nH]1 [Compound 262, 2-[5-chloro-4-(2,2-difluorospiro[3.3]heptan-6-yl)-2-methyl-phenyl]-4-oxo-1H-1,6-naphthyridine-5-carboxamide]",< 500 nM
26,"Cc1cc(C2CC3(CC3)C2)c(Cl)cc1-c1cc(=O)c2c(C(N)=O)nccc2[nH]1 [Compound 263, 2-(5-chloro-2-methyl-4-spiro[2.3]hexan-5-yl-phenyl)-4-oxo-1H-1,6-naphthyridine-5-carboxamide]",< 500 nM
27,"Cc1cc(C23CCCC2C3)c(Cl)cc1-c1cc(=O)c2c(C(N)=O)nccc2[nH]1 (stereo not drawn) [Compound 264, 2-[4-(1-bicyclo[3.1.0]hexanyl)-5-chloro-2-methyl-phenyl]-4-oxo-1H-1,6-naphthyridine-5-carboxamide]",< 500 nM
